Measured values: PubChem BioAssay AID248 (DTP/NCI, 2004)
The list does not hold the whole screen: it gathers tests that were run many times, whatever their T/C, doses with no T/C, and many T/C values between a quarter and a half above the control. Other doses and runs of a compound stand elsewhere. T/C: endpoint of the treated group in % of that of the vehicle group. For survival time, the PubChem record calls one and a half times the control and up active, and a quarter to a half above the control has no call in these data; cut-offs in other NCI protocols can differ. Schedule codes are those of the source, read here as Q, the interval in days (D) or hours (H), X, the number of doses. Some entries hold several experiments; the results are listed from low to high. Some schedule codes hold Z or #, which are not explained here. Some T/C values are followed by the survivors on the day toxicity was checked, most often the fifth; without a count, all were alive then.

System: L1210 leukemia ip in BDF1 mice, survival T/C
Test: NCI In Vivo Anticancer Drug Screen. Data for tumor model L1210 Leukemia (intraperitoneal) in B6D2F1 (BDF1) mice
Conditions: T/C endpoint: mean survival time, higher T/C = longer survival

Measured: T/C

O=c1[nH]c(=O)n(C2CC(O)C(CO)O2)cc1C(F)(F)F (configuration not stated)
133 % of control: dose: 12.5 mg/kg/injection, schedule: Q01DX015 (ip), vehicle: saline | dose: 179.5 mg/kg/injection, schedule: Q01DX Z (ip), vehicle: water | dose: 400.0 mg/kg/injection, schedule: Q01DX Z (oral), vehicle: saline
125 % of control: dose: 8.0 mg/kg/injection, schedule: Q01DX009 (ip), vehicle: saline | dose: 64.0 mg/kg/injection, schedule: Q03HX016 (ip), vehicle: water | dose: 150.0 mg/kg/injection, schedule: Q01DX Z (oral), vehicle: saline
138 % of control: dose: 16.0 mg/kg/injection, schedule: Q03HX024 (ip), vehicle: water | dose: 600.0 mg/kg/injection, schedule: Q03DX Z (ip), vehicle: saline
147 % of control: dose: 32.0 mg/kg/injection, schedule: Q01DX009 (ip), vehicle: saline | dose: 32.0 mg/kg/injection, schedule: Q01DX009 (ip), vehicle: water | dose: 108.0 mg/kg/injection, schedule: Q01DX Z (ip), vehicle: water
126 and 129 % of control: dose: 100.0 mg/kg/injection, schedule: Q01DX005 (ip), vehicle: saline
146 % of control: dose: 64.0 mg/kg/injection, schedule: Q## X024 (ip), vehicle: saline | dose: 100.0 mg/kg/injection, schedule: Q01DX015 (oral), vehicle: saline | dose: 1024.0 mg/kg/injection, schedule: Q## X024 (ip), vehicle: saline
127 % of control: dose: 1.33 mg/kg/injection, schedule: Q#B X045 (ip), vehicle: saline | dose: 12.0 mg/kg/injection, schedule: Q01DX Z (sc), vehicle: saline | dose: 16.0 mg/kg/injection, schedule: Q01DX009 (ip), vehicle: water | dose: 25.0 mg/kg/injection, schedule: Q01DX006 (iv), vehicle: saline | dose: 50.0 mg/kg/injection, schedule: Q01DX006 (iv), vehicle: saline
135 % of control: dose: 4.5 mg/kg/injection, schedule: Q01DX Z (ip), vehicle: saline
142 % of control: dose: 2.0 mg/kg/injection, schedule: Q#B X Z (ip), vehicle: saline | dose: 37.5 mg/kg/injection, schedule: Q01DX Z (ip), vehicle: water | dose: 50.0 mg/kg/injection, schedule: Q01DX Z (ip), vehicle: saline | dose: 2048.0 mg/kg/injection, schedule: Q## X024 (oral), vehicle: saline
136 % of control: dose: 8.0 mg/kg/injection, schedule: Q03HX024 (ip), vehicle: water | dose: 12.5 mg/kg/injection, schedule: Q01DX Z (im), vehicle: saline | dose: 37.5 mg/kg/injection, schedule: Q#A X034 (ip), vehicle: water | dose: 80.0 mg/kg/injection, schedule: Q01DX009 (oral), vehicle: saline | dose: 600.0 mg/kg/injection, schedule: Q01DX005 (ip), vehicle: water
144 % of control: dose: 75.0 mg/kg/injection, schedule: Q#A X034 (ip), vehicle: water | dose: 200.0 mg/kg/injection, schedule: Q01DX006 (iv), vehicle: saline | dose: 800.0 mg/kg/injection, schedule: Q01DX Z (im), vehicle: saline
145 % of control: dose: 512.0 mg/kg/injection, schedule: Q## X008 (ip), vehicle: saline | dose: 1024.0 mg/kg/injection, schedule: Q## X008 (ip), vehicle: saline
126 and 132 % of control: dose: 200.0 mg/kg/injection, schedule: Q01DX005 (ip), vehicle: saline
131 % of control: dose: 107.5 mg/kg/injection, schedule: Q01DX Z (ip), vehicle: water | dose: 200.0 mg/kg/injection, schedule: Q01DX Z (oral), vehicle: saline
130 % of control: dose: 25.0 mg/kg/injection, schedule: Q01DX Z (im), vehicle: saline | dose: 37.5 mg/kg/injection, schedule: Q01DX017 (ip), vehicle: water | dose: 64.5 mg/kg/injection, schedule: Q01DX Z (ip), vehicle: water | dose: 256.0 mg/kg/injection, schedule: Q## X024 (oral), vehicle: saline | dose: 400.0 mg/kg/injection, schedule: Q01DX015 (ip), vehicle: saline | dose: 512.0 mg/kg/injection, schedule: Q## X003 (oral), vehicle: saline
149 % of control: dose: 150.0 mg/kg/injection, schedule: Q01DX017 (ip), vehicle: water
131 % of control [9 of 10 alive]: dose: 298.5 mg/kg/injection, schedule: Q01DX Z (ip), vehicle: water
137 % of control: dose: 16.0 mg/kg/injection, schedule: Q01DX009 (ip), vehicle: saline | dose: 39.0 mg/kg/injection, schedule: Q01DX Z (ip), vehicle: water | dose: 160.0 mg/kg/injection, schedule: Q01DX009 (oral), vehicle: saline
129 % of control: dose: 32.0 mg/kg/injection, schedule: Q01DX009 (oral), vehicle: saline | dose: 64.0 mg/kg/injection, schedule: Q01DX009 (oral), vehicle: saline | dose: 299.5 mg/kg/injection, schedule: Q01DX Z (ip), vehicle: water
139 % of control: dose: 50.0 mg/kg/injection, schedule: Q01DX015 (oral), vehicle: saline | dose: 250.0 mg/kg/injection, schedule: Q01DX Z (ip), vehicle: saline | dose: 350.0 mg/kg/injection, schedule: Q01DX Z (ip), vehicle: saline | dose: 2048.0 mg/kg/injection, schedule: Q## X008 (oral), vehicle: saline
148 % of control: dose: 40.0 mg/kg/injection, schedule: Q01DX Z (ip), vehicle: saline | dose: 151.0 mg/kg/injection, schedule: Q01DX Z (ip), vehicle: saline | dose: 400.0 mg/kg/injection, schedule: Q01DX006 (iv), vehicle: saline
141 % of control: dose: 75.0 mg/kg/injection, schedule: Q01DX017 (ip), vehicle: water | dose: 200.0 mg/kg/injection, schedule: Q01DX015 (ip), vehicle: saline | dose: 300.0 mg/kg/injection, schedule: Q01DX005 (ip), vehicle: water
140 % of control: dose: 38.5 mg/kg/injection, schedule: Q01DX Z (ip), vehicle: water | dose: 400.0 mg/kg/injection, schedule: Q01DX Z (ip), vehicle: saline | dose: 400.0 mg/kg/injection, schedule: Q01DX Z (sc), vehicle: saline | dose: 800.0 mg/kg/injection, schedule: Q01DX Z (sc), vehicle: saline
134 % of control: dose: 100.0 mg/kg/injection, schedule: Q01DX006 (iv), vehicle: saline | dose: 300.0 mg/kg/injection, schedule: Q02DX009 (ip), vehicle: water
132 % of control: dose: 128.0 mg/kg/injection, schedule: Q03HX016 (ip), vehicle: water | dose: 150.0 mg/kg/injection, schedule: Q02DX009 (ip), vehicle: water | dose: 320.0 mg/kg/injection, schedule: Q01DX009 (oral), vehicle: saline | dose: 1024.0 mg/kg/injection, schedule: Q04DX003 (ip), vehicle: water | dose: 1024.0 mg/kg/injection, schedule: Q## X008 (oral), vehicle: saline | dose: 2000.0 mg/kg/injection, schedule: Q01DX001 (ip), vehicle: saline | dose: 2048.0 mg/kg/injection, schedule: Q04DX003 (ip), vehicle: water
126 % of control: dose: 6.25 mg/kg/injection, schedule: Q01DX Z (im), vehicle: saline | dose: 75.0 mg/kg/injection, schedule: Q02DX009 (ip), vehicle: water | dose: 150.0 mg/kg/injection, schedule: Q01DX005 (ip), vehicle: water | dose: 178.5 mg/kg/injection, schedule: Q01DX Z (ip), vehicle: water | dose: 256.0 mg/kg/injection, schedule: Q01DX009 (ip), vehicle: water | dose: 256.0 mg/kg/injection, schedule: Q## X003 (oral), vehicle: saline | dose: 512.0 mg/kg/injection, schedule: Q01DX009 (oral), vehicle: saline
